Data from patent publication US5252718A, “Fibroblast growth factor antagonists” (The Salk Institute for Biological Studies, priority 1992, dated 1993).
Part of at least one peptide drawing is inferred or uncertain, most often the ends. Square brackets hold non-standard residues; d marks the D form. Ends that are not written are not given here. Peptide text beside a SMILES is read from it.

Columns and labels:
BAAE cells = type: cell-based, bovine; conditions: testing in the manner of Example II; result in words
Method: To determine the effectiveness of the bFGF fragment peptide to inhibit the growth of endothelial cells, the peptide is tested under conditions to measure its ability to modulate both basal cell growth and bFGF-simulated cell proliferation. A bioassay was employed of the type set forth in detail in Gospodarowicz et al., J. Cell Biol., 122, 323-333 (1985), using BAAE cells.
For each test, an initial cell density of between about 0.3-0.5×10^4 cells per well was established in 24-miniwell plates. After 6-8 hours, the cells in each well were treated with a challenge dose of bFGF in the absence, or presence to a varying concentration, of a synthetic FGF antagonist. The precise treatment was repeated 48 hours later. On the fifth day, the cells were digested with trypsin, and the total number of cells in each well was determined using a Coulter particle counter.

[1] = test system: adult bovine aortic arch endothelial cells; test: Growth inhibition of endothelial cells by recombinant bFGF fragment; type: cell-based; conditions: after cyanogen bromide treatment; result in words

| Molecule | inhibition of bFGF-induced mitosis (BAAE cells) | effect on total number of cells present per dish [1] |
| --- | --- | --- |
| CC(C)C[C@H](NC(=O)[C@H](C)NC(=O)[C@@H](NC(=O)[C@H](Cc1ccc(O)cc1)NC(=O)[C@H](Cc1c[nH]c2ccccc12)NC(=O)[C@@H](CO)NC(=O)[C@H](CO)NC(=O)[C@H](Cc1ccc(O)cc1)NC(=O)[C@H](CCCCN)NC(=O)[C@H](CCCNC(=N)N)NC(=O)[C@H](CO)NC(=O)[C@H](CCCNC(=N)N)NC(=O)[C@@H](N)Cc1ccc(O)cc1)C(C)C)C(=O)N[C@@H](CCCCN)C(=O)N[C@@H](CCCNC(=N)N)C(N)=O [[D-Ser^113]-bFGF(106-120)-NH2] (H-YRSRKYS[dS]WYVALKR-NH2) | substantially as strong as bFGF(106-120)-NH2 | – |
| YCKNGGFFLRIHPDGRVDGVREKSDPHIKLQLQAEERGVVSIKGV [bFGF fragment] | – | substantially reduce |
